Experimental data: patent US7189691B2, “Methods and compositions for treating leukemia” (The Administrators of the Tulane Educational Fund, priority 2004, dated 2007)
Values after ≈ are worked out from the molar mass of the structure shown. For at least one compound, name, drawing or mass did not settle the structure.

Columns and labels:
[1] = tested on: B1 leukemia cell line; assay: MTT viability assay; assay type: cell-based; conditions: 72 h
Protocol: (§1) All cell lines were maintained in RPMI 1640+10% FCS. 100 μl aliquots of cell suspension (5×10^5 cells/ml) were cultured in flat-bottomed 96 well plates in the presence of different concentrations of peptides. After 72 h incubation at 37° C. in humidified air containing 5% CO2, viable cell number was determined by MTT assay as follows: 10 μl of 3-[4,5-dimethylthiazol-2-yl]-2,5-diphenyl tetrazolium bromide (MTT) (5 mg/ml concentration) (Sigma) was added to each well and incubated further for 6 h. Formazan crystals that are formed during incubation were dissolved in 100 μl of acidified isopropanol. The optical density at 550 nm (which is linearly related to the number of viable cells) was measured using a plate spectrophotometer. Growth characteristics of the leukemia cell lines were also determined for cells by Trypan Blue exclusion.

[2] = tested on: THP-1 leukemia cell line; assay: MTT viability assay; assay type: cell-based; conditions: 72 h
Protocol: as §1

CC[C@H](C)[C@H](NC(=O)[C@H](CCCCN)NC(=O)[C@@H](NC(=O)[C@H](Cc1c[nH]c2ccccc12)NC(=O)[C@H](CC(C)C)NC(=O)[C@H](CCCCN)NC(=O)[C@H](CCCCN)NC(=O)[C@H](Cc1c[nH]c2ccccc12)NC(=O)[C@H](CCCCN)NC(=O)[C@H](CCSC)NC(=O)[C@H](CCCNC(=N)N)NC(=O)[C@H](CCCNC(=N)N)NC(=O)[C@H](CC(N)=O)NC(=O)[C@H](CCC(N)=O)NC(=O)[C@H](Cc1ccccc1)NC(=O)[C@H](Cc1c[nH]c2ccccc12)NC(=O)[C@H](CCCCN)NC(=O)[C@@H](NC(=O)[C@H](CCC(N)=O)NC(=O)[C@@H](N)CCCNC(=N)N)[C@@H](C)CC)C(C)C)C(=O)N[C@@H](CC(=O)O)C(=O)N[C@@H](CC(C)C)C(=O)N[C@@H](CC(=O)O)C(=O)N[C@@H](CC(C)C)C(=O)N[C@@H](CC(C)C)C(=O)N[C@@H](CO)C(=O)N[C@@H](CCCNC(=N)N)C(=O)N[C@H](C(=O)N1CCC[C@H]1C(=O)O)C(C)C [PFWT] showed an LC50 [1] of 20 µg/mL (≈ 5.29 µM) and an LC50 [2] of ~200 µg/mL (≈ 52.9 µM).
